# Experimental data reported in publication PMC5864096.
# No constants are given. Whether binding was seen depends on the method and setting. Binding calls can cover weak binding; strength is not graded here.
# Biological target: T1, CASY-1 C-terminal (cytoplasmic tail of CASY-1), yeast two-hybrid construct (C. elegans) (UniProt G5ED46)
# T1 sequence: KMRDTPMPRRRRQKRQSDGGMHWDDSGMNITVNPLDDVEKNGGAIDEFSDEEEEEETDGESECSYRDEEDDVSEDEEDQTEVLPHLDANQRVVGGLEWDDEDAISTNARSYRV
# Test: two-hybrid; yeast two-hybrid; CASY-1 C-terminal against UNC-104 domain constructs; spotting with and without selection; bait and prey not told
row,Substance,binding
1,"UNC-104 fork head domain FHA (aa 460-633), yeast two-hybrid construct (C. elegans) (domain or fragment)",binds weakly
2,"UNC-104 motor domain (aa 1-356), yeast two-hybrid construct (C. elegans) (domain or fragment)",binds weakly
